The values that follow come from article doi:10.1101/2024.07.23.604837.

What all share (experiment): co-IP
The target of assay [1] is T1, FLAG-tagged ZFC3H1 N-term SLiM mutant (N-term ΔSLiM) (UniProt O60293).
T1 sequence: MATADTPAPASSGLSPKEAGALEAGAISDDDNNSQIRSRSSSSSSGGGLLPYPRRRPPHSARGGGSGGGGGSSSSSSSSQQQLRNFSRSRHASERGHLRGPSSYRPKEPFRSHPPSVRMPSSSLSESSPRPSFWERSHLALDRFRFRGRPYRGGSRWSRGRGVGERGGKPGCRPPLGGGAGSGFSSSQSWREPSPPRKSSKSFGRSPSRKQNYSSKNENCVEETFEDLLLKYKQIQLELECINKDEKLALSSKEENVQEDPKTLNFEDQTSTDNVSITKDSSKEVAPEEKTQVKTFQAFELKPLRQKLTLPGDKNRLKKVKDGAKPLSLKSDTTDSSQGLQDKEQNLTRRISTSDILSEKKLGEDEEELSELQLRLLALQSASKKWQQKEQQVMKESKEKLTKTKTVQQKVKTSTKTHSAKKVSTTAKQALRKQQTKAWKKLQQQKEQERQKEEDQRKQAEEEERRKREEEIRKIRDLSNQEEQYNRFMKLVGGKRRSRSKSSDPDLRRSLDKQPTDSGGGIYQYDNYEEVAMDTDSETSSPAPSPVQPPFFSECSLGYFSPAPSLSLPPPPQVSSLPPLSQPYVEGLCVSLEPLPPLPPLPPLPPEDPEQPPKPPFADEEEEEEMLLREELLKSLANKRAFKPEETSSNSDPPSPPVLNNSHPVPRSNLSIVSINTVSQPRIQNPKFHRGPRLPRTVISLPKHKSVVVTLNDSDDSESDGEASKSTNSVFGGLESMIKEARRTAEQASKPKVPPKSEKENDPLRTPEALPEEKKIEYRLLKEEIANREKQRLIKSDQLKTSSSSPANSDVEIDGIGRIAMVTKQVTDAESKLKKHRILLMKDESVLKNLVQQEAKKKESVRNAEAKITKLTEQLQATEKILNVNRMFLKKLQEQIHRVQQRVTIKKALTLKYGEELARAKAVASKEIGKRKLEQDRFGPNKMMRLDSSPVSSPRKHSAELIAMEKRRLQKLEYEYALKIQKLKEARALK

Assay [2] addresses T2, FLAG-tagged ZFC3H1 residues 600-990 (UniProt O60293).
T2 sequence: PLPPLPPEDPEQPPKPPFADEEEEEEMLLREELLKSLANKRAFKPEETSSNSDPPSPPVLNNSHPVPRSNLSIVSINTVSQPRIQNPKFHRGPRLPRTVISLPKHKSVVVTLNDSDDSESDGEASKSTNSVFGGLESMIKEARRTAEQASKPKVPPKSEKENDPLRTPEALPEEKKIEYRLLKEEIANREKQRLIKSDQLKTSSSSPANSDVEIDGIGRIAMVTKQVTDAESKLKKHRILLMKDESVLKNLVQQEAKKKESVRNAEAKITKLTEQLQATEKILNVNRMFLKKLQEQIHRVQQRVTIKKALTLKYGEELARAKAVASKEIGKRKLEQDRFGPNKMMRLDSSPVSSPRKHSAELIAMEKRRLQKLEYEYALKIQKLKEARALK

Assay [3] concerns the target T3, FLAG-tagged ZFC3H1 N-terminal region (residues 1-990) (UniProt O60293).
T3 sequence: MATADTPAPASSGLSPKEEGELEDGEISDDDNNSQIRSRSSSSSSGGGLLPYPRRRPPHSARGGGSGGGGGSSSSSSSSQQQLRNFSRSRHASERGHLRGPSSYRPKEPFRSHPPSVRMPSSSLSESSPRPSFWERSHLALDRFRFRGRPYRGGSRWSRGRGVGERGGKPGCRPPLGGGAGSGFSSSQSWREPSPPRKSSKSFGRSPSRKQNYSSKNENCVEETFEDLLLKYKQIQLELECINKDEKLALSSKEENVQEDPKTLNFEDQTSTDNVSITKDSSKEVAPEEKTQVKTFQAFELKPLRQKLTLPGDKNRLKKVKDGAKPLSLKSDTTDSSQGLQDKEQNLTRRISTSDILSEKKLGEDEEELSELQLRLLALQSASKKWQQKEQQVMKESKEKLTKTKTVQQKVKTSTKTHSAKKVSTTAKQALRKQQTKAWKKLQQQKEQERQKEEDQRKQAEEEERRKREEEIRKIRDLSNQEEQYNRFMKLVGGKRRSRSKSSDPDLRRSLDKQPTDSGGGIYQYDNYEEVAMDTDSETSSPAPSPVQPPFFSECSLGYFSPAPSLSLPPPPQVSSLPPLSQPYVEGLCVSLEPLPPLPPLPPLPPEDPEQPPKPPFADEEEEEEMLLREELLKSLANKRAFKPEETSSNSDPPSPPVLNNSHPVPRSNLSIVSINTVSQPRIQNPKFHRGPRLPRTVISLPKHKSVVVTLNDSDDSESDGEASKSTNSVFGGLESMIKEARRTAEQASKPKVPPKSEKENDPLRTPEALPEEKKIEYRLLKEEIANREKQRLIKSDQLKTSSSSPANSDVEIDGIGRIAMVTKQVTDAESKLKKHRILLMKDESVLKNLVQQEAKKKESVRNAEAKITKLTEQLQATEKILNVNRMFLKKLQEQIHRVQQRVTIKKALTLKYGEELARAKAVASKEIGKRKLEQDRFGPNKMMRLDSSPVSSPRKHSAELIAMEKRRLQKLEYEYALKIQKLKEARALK

Assay [4] concerns the target FLAG-tagged ZFC3H1, full length (UniProt O60293).
Assay [5] shares this target. The source holds these as a separate data set.

Like-named read-outs stand apart in the source and are kept apart here. Results are given in words; binding and its absence hold for the method and conditions named. In cells and extracts the contact can be indirect. Some binding calls cover weakened binding; strength is not graded here. For some of these results: Tags and fused reporters may be left off the sequences shown.

B1: PABPN1 (protein, UniProt Q86U42 1-306)
chain: MAAAAAAAAAAGAAGGRGSGPGRRRHLVPGAGGEAGEGAPGGAGDYGNGLESEELEPEELLLEPEPEPEPEEEPPRPRAPPGAPGPGPGSGAPGSQEEEEEPGLVEGDPGDGAIEDPELEAIKARVREMEEEAEKLKELQNEVEKQMNMSPPPGNAGPVIMSIEEKMEADARSIYVGNVDYGATAEELEAHFHGCGSVNRVTILCDKFSGHPKGFAYIEFSDKESVRTSLALDESLFRGRQIKVIPKRTNRPGISTTDRGFPRARYRARTTNYNSSRSRFYSGFNSRPRGRVYRGRARATSWYSPY
B1: the binding result in assay [1], in assay [2] and in assay [3] was “binds” in each case.

B2: ARS2 (protein, UniProt Q9BXP5 1-876)
chain: MGDSDDEYDRRRRDKFRRERSDYDRSRERDERRRGDDWNDREWDRGRERRSRGEYRDYDRNRRERFSPPRHELSPPQKRMRRDWDEHSSDPYHSGYEMPYAGGGGGPTYGPPQPWGHPDVHIMQHHVLPIQARLGSIAEIDLGVPPPVMKTFKEFLLSLDDSVDETEAVKRYNDYKLDFRRQQMQDFFLAHKDEEWFRSKYHPDEVGKRRQEARGALQNRLRVFLSLMETGWFDNLLLDIDKADAIVKMLDAAVIKMEGGTENDLRILEQEEEEEQAGKPGEPSKKEEGRAGAGLGDGERKTNDKDEKKEDGKQAENDSSNDDKTKKSEGDGDKEEKKEDSEKEAKKSSKKRNRKHSGDDSFDEGSVSESESESESGQAEEEKEEAEEALKEKEKPKEEEWEKPKDAAGLECKPRPLHKTCSLFMRNIAPNISRAEIISLCKRYPGFMRVALSEPQPERRFFRRGWVTFDRSVNIKEICWNLQNIRLRECELSPGVNRDLTRRVRNINGITQHKQIVRNDIKLAAKLIHTLDDRTQLWASEPGTPPLPTSLPSQNPILKNITDYLIEEVSAEEEELLGSSGGAPPEEPPKEGNPAEINVERDEKLIKVLDKLLLYLRIVHSLDYYNTCEYPNEDEMPNRCGIIHVRGPMPPNRISHGEVLEWQKTFEEKLTPLLSVRESLSEEEAQKMGRKDPEQEVEKFVTSNTQELGKDKWLCPLSGKKFKGPEFVRKHIFNKHAEKIEEVKKEVAFFNNFLTDAKRPALPEIKPAQPPGPAQILPPGLTPGLPYPHQTPQGLMPYGQPRPPILGYGAGAVRPAVPTGGPPYPHAPYGAGRGNYDAFRGQGGYPGKPRNRMVRGDPRAIVEYRDLDAPDDVDFF
Regarding B2, the binding result is “binds” in assay [4], “no binding” in assay [1], “binds” in assay [3] and “binds” in assay [5].
